According to doi:10.1101/2020.04.07.029496 (bioRxiv, 2020):
Numbering of substitutions follows the chain as printed. These are yes or no findings as the source states them, for the method shown. Binding calls can cover weak binding; strength is not graded here.

What was measured:
Assay in all cases: SEC
[1] = molecular target: T1, S. cerevisiae Tip20 (S. cerevisiae) (UniProt P33891)
T1 sequence: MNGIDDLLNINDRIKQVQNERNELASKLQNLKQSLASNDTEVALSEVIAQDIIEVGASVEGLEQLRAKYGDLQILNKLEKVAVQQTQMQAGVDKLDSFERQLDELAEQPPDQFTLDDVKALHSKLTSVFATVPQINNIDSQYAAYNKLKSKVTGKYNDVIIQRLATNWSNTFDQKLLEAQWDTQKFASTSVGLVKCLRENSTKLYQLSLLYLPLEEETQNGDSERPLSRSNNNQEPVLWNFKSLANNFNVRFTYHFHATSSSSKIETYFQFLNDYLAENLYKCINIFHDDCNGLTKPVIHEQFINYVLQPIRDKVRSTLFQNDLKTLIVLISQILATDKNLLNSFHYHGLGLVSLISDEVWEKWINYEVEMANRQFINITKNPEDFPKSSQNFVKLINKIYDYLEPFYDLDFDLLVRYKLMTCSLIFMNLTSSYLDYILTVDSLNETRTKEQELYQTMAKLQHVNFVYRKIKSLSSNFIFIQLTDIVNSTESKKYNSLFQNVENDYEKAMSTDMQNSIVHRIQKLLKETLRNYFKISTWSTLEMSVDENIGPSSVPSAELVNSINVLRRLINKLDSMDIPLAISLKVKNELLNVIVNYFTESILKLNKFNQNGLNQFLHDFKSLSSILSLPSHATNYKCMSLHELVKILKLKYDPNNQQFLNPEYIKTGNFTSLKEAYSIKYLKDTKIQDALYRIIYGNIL

[2] = molecular target: T2, S. cerevisiae Tip20_(L585D) (S. cerevisiae) (UniProt P33891)
T2 sequence: T1 sequence with L585D

[3] = molecular target: T3, S. cerevisiae Tip20_(I481D,L585D) (S. cerevisiae, UniProt P33891 1-701, I481D | L585D)
T3 sequence: T1 sequence with I481D, L585D

[4] = molecular target: T4, S. cerevisiae Tip20 Ile-481 to aspartate (S. cerevisiae) (UniProt P33891)
T4 sequence: T1 sequence with I481D

Substance | binding [1] | binding [2] | binding [3] | binding [4]
S. cerevisiae MBP-Sec20NTD Val-82 to aspartate (domain or fragment) | binds | – | – | –
S. cerevisiae MBP-Sec20NTD (domain or fragment) | binds | binds | binds | binds
S. cerevisiae MBP-Sec20NTD Leu149 to aspartate (domain or fragment) | binds | – | – | –
S. cerevisiae MBP-Sec20NTD V82D/L149D (domain or fragment) | binds | – | – | –
